Measured values taken from US11730712B2, “Functionalized long-chain hydrocarbon mono- and di-carboxylic acids and derivatives thereof, and their use for the prevention or treatment of disease” (ESPERVITA THERAPEUTICS, INC., priority 2021, dated 2023).

System: C57BL6/J mice
Assay: Indirect calorimetry (CLAMS) in fructose-fed C57BL6 mice
Assay type: in vivo, mouse
Conditions: 100 mg/kg oral gavage, 24 hours
Protocol: Materials and Methods. All experiments were carried out using the methods approved by the Animal Research Ethics Board at McMaster University, Canada (Steinberg Laboratory Animal Utilization Protocol #16-12-42). 8-Week-old male C57BL6/J mice were ordered from Jackson Laboratory, Bar Harbor, Me. and housed at the McMaster University Central Animal Facility. Animals were housed in the ventilated cages racks system and provided with ad libitum access to normal chow diet (Teklad 8640 22/5 rodent diet, procured from Envigo, Mississauga ON) and water supplemented with fructose (30% weight/volume, made fresh weekly) for at least 2-weeks before testing commenced. A 12-hour light/dark cycle and a temperature of 23±2° C. were maintained throughout the animal housing. Data were analyzed using one-way analyses of variance followed by a Tukey's multiple comparisons post hoc test where appropriate. All statistical analysis was carried out using GraphPad Prism 8 software. A p-value of less than or equal 0.05 was considered significant.
Experimental and Results. Respiratory Exchange Ratio (RER) and related metabolic parameters were measured using the Comprehensive Lab Animal Monitoring System (CLAMS, Columbus Instruments, Columbus, Ohio). Animals were placed in CLAMS and allowed ad libitum access to normal chow diet and water supplemented with fructose (30% weight/volume) for at least 24 hours before the experiment began. At 5:30 p.m. chow diet was removed and water containing 30% fructose was replaced with normal tap water. Animals were fasted overnight until food and 30% fructose water were made accessible the next day at 7:30 am. (14 hours total). Animals were allowed to feed ad libitum for ˜2 hours. RER was monitored and those animals with RER values >1 were administered either vehicle (1.5% Carboxymethyl cellulose and 0.2% Tween 20) alone or vehicle containing Compound I-1 or Compound I-32 at a dose of 100 mg/kg via oral gavage. Animals remained in the metabolic cages and RER, activity level, locomotor activity, and food intake were monitored for 24 hours. Metabolic parameters were calculated using Oxymax software included with Comprehensive Lab Animal Monitoring System (CLAMS). RER was calculated as the ratio of oxygen consumed (VO2) versus the amount of CO2 produced (VCO2) given by the following equation: RER=VCO2/VO2
Locomotor activity was calculated as the total number of beam breaks in each cage over a 24-hour period. The heat (calorific value, CV) was calculated by the following equation: Heat=CV×VO2 CV=3.815+1.232×RER

| SMILES | food intake compared to vehicle controls | total locomotor activity compared to vehicle treated mice |
| --- | --- | --- |
| CC(C)(CCCCc1ccc(CCCCC(C)(C)C(=O)O)cc1)C(=O)O [Compound I-1, 6-[4-(5-carboxy-5-methylhexyl)-phenyl]-2,2-dimethylhexanoic acid] | tended to suppress food intake compared to vehicle controls, however, this was not significant | significantly lower |
| CC(C)(CCCCc1cccc(CCCCC(C)(C)C(=O)O)c1)C(=O)O [Compound I-32, 6-[3-(5-carboxy-5-methylhexyl)-phenyl]-2,2-dimethylhexanoic acid] | tended to suppress food intake compared to vehicle controls, however, this was not significant | significantly lower |
